In doi:10.1101/2020.04.03.023721 one finds binding data, which are given here for one substance.

Chains of the proteins cited; added tags and fusions are not shown. Residues count along the entry.
UniProt P29466: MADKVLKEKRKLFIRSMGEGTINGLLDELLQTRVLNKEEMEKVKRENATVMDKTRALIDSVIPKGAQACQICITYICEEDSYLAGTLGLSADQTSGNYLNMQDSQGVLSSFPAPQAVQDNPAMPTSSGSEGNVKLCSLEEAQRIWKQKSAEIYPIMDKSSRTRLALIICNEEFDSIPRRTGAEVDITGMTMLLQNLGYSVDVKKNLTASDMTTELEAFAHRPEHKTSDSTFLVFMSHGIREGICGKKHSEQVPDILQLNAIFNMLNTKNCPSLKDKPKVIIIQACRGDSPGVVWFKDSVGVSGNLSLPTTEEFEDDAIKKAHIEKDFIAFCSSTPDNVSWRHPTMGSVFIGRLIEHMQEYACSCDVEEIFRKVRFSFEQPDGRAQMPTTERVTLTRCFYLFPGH
UniProt Q96P20, residues 1-93: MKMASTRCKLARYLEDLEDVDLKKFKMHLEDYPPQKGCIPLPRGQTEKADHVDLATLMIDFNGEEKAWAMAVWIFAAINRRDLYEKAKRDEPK
UniProt Q96RD7: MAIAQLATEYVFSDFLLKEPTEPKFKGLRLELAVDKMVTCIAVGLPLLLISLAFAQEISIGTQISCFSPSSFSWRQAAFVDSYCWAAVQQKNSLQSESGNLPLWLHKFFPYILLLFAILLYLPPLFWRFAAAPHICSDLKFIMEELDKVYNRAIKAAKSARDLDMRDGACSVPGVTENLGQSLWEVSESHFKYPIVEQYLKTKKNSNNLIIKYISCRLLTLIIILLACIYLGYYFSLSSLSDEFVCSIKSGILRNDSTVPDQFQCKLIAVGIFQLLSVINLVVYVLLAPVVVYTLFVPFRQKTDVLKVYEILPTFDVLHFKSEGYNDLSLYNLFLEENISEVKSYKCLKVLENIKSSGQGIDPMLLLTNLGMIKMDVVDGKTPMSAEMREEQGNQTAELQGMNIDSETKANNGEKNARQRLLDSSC
UniProt P49023: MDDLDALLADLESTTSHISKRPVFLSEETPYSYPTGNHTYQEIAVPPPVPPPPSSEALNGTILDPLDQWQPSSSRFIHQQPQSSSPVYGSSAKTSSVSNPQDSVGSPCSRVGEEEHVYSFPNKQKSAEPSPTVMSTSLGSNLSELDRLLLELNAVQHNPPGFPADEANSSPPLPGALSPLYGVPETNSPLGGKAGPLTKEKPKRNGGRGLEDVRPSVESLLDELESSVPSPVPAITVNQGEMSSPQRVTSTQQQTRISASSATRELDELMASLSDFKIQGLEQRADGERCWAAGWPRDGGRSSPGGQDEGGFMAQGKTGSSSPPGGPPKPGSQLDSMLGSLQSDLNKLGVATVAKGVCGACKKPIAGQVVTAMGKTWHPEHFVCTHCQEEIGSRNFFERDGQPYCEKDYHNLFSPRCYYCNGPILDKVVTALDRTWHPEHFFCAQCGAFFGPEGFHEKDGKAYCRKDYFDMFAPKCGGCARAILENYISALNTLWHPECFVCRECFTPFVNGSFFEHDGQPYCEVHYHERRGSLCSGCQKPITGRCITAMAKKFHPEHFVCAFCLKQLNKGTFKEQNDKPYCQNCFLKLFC

These are yes or no findings as the source states them, for the method shown. In cells and extracts the contact can be indirect. Some entries that bind do so weakly or less than the wild type. For some of these results: Where a sequence is shown, tags or fusion partners need not be part of it.

Test in all cases: co-IP
The target of test [1] is T1, Flag-P2X7(335-595) (UniProt Q99572).
T1 sequence: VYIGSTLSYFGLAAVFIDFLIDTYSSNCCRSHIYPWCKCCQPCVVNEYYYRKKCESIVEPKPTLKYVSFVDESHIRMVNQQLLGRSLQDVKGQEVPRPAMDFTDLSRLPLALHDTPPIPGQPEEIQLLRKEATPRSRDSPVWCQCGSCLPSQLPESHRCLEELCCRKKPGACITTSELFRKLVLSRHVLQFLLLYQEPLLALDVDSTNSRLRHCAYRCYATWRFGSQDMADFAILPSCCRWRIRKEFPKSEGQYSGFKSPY

The target in test [2] is T2, Flag-UPS13(301-624) (human) (UniProt Q92995).
T2 sequence: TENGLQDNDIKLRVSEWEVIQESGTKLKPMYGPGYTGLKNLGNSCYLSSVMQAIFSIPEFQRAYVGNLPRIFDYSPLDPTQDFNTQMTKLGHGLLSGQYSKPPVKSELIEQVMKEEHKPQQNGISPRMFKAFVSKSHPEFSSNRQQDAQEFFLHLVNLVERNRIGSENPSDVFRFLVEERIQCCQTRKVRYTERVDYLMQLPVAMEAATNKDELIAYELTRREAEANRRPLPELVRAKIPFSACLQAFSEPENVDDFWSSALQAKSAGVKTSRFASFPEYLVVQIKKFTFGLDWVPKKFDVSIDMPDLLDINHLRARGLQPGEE

In test [3] the target is Flag-Casp-1 (human) (UniProt P29466).
In test [4] the target is Flag-PYRIN (human) (UniProt Q96P20).
Test [5] concerns the target T3, Flag-P2X7(34-595) (UniProt Q99572).
T3 sequence: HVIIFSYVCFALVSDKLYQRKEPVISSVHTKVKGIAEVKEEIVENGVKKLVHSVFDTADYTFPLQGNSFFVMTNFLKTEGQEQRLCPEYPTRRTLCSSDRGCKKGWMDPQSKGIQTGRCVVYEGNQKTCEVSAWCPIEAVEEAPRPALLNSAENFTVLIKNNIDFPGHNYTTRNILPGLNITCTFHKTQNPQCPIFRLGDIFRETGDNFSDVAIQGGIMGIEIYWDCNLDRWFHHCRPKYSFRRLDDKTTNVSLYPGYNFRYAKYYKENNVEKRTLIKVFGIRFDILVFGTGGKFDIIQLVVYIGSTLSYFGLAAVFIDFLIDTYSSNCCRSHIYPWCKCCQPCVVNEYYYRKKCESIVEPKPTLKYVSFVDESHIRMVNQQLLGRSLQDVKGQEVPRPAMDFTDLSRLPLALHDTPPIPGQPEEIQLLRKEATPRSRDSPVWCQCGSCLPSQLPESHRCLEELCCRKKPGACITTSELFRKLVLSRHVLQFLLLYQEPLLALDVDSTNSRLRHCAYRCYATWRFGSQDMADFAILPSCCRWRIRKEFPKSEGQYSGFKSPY

In test [6] the target is Flag-Pannexin-1 (UniProt Q96RD7).
Test [7] deals with T4, Flag-P2X7(47-595) (UniProt Q99572).
T4 sequence: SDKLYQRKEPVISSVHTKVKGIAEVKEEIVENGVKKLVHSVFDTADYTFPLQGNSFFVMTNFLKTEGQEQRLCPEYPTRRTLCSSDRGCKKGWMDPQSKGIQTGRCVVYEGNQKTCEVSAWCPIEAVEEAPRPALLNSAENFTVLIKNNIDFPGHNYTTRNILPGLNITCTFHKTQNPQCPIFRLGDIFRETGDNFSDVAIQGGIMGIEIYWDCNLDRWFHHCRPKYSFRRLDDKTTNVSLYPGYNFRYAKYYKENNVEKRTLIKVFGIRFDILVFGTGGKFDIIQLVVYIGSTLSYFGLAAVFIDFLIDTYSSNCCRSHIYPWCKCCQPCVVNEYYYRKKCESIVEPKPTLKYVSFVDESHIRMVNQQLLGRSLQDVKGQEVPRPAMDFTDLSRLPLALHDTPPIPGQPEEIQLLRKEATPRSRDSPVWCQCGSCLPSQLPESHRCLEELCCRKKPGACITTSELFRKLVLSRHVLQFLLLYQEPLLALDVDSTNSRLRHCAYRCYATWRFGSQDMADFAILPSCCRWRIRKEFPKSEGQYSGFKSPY

HA-Paxillin (from UniProt P49023 1-591): the binding entry in test [1] is listed as “no binding”; in test [2], “no binding”; in test [3] it was “no binding”; in test [4], “no binding”; in test [5], “no binding”; in test [6], “binds”. Besides, the binding entry in test [7] is recorded as “no binding”.
